Reference: the supplement of paper PMC10849652
This is one part of the list.

Protein sequences, listed by entry. Tags and fused reporters are not part of them. Lines headed by an entry give the natural chain unless they say otherwise; changes in a name come on top.
UniProt P0C7M4: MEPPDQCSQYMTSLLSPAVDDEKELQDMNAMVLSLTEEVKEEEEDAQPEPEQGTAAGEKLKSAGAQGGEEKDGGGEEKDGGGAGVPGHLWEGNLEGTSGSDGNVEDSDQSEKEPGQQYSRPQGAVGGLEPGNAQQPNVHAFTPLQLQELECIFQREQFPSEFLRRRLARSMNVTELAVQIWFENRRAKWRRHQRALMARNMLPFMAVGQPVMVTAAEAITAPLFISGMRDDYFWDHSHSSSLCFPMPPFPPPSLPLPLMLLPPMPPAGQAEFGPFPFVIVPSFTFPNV
UniProt P17081: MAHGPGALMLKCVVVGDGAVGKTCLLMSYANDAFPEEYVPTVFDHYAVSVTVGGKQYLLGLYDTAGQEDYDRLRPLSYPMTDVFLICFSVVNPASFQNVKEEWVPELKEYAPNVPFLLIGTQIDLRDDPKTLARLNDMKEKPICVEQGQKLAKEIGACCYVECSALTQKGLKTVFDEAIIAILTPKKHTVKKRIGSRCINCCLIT
UniProt Q9HAU8: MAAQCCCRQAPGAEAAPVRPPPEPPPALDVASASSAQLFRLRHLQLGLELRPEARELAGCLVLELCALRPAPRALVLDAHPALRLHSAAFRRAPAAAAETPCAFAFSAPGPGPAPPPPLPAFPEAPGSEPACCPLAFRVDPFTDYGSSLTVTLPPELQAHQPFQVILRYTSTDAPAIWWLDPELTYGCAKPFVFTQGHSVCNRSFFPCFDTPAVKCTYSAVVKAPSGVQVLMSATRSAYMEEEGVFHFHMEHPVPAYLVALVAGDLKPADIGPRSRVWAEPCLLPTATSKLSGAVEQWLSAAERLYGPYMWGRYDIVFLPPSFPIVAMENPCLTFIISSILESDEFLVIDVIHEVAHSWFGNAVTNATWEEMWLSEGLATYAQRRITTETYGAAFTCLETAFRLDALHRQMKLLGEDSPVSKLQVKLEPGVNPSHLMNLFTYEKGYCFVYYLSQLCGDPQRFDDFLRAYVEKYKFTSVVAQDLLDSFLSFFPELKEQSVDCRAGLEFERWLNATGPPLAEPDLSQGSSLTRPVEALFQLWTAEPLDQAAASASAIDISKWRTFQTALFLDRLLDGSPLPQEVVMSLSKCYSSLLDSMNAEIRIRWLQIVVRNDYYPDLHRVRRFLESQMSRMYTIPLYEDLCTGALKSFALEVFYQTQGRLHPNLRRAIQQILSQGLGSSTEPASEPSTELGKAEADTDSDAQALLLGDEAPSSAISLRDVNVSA
UniProt Q8TA86: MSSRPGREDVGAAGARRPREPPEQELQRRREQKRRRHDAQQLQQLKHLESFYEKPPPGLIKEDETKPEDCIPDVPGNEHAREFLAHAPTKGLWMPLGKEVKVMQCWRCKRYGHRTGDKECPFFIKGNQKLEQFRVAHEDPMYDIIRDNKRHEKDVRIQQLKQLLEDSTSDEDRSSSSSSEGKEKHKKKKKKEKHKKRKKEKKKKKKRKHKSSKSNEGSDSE
UniProt Q86XS8: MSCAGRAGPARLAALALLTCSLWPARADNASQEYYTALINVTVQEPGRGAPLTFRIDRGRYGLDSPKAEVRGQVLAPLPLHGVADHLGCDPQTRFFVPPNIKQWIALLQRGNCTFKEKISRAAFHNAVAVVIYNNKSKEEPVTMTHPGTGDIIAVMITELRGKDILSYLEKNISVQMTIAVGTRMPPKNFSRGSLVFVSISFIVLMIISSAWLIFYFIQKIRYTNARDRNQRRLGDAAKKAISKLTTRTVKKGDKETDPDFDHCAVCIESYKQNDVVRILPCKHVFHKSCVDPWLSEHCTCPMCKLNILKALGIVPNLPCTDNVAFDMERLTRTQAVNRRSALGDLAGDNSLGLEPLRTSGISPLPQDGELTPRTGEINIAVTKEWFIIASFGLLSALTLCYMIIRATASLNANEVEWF
UniProt Q86UA6: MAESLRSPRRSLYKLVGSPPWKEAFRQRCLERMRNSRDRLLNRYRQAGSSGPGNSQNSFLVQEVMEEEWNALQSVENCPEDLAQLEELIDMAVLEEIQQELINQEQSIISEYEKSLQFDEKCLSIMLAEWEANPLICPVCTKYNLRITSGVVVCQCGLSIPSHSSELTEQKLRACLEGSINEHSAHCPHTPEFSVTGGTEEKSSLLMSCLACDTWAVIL
UniProt Q8WVD3: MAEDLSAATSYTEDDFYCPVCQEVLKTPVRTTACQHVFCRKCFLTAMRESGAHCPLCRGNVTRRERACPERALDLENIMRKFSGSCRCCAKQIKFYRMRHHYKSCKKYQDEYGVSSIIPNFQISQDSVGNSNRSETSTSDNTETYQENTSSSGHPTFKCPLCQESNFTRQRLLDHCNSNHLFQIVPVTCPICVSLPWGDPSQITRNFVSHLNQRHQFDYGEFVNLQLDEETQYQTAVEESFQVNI
UniProt Q9GZN7, whole entry, looked up: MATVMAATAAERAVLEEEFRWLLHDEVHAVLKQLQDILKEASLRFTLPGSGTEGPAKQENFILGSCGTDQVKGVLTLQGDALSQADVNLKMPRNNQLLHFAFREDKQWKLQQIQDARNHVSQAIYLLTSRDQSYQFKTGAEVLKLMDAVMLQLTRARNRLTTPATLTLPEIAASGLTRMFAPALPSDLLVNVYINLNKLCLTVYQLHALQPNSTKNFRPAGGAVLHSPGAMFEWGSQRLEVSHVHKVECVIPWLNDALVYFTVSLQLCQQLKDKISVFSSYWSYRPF
UniProt Q9HCK4: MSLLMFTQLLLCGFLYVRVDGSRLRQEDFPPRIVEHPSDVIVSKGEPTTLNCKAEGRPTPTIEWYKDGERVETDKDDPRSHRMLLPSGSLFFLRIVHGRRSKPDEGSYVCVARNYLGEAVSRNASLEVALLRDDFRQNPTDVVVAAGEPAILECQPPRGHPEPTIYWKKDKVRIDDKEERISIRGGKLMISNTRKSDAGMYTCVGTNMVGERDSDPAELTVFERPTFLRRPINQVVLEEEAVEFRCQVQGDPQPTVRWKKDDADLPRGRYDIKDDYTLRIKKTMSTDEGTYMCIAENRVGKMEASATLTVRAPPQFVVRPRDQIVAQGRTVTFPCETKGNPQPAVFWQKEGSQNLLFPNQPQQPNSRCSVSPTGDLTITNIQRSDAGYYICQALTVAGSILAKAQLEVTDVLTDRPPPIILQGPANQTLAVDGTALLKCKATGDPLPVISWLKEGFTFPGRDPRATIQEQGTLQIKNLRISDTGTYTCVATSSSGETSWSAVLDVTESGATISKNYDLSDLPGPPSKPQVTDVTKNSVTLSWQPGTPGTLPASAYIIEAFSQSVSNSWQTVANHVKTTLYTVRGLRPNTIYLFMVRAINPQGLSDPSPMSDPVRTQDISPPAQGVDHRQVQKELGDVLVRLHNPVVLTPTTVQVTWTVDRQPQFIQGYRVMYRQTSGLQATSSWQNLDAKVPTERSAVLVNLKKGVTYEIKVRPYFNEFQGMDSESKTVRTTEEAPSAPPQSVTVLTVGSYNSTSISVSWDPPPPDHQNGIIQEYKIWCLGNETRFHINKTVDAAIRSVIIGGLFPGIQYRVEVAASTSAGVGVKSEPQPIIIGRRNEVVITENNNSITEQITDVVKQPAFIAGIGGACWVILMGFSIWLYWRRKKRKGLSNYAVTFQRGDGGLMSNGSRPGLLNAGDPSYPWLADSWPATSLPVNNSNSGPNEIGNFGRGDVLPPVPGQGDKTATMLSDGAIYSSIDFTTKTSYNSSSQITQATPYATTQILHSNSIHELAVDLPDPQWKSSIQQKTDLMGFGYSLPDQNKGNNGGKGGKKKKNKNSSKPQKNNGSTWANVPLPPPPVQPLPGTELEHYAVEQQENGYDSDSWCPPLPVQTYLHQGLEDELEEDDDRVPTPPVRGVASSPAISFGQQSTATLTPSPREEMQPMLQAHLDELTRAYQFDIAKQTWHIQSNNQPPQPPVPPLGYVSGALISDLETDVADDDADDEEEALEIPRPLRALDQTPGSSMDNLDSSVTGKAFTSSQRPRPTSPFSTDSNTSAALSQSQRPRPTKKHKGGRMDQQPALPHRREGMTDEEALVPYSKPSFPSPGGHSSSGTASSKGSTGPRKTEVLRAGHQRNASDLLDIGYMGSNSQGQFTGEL
UniProt Q9H920: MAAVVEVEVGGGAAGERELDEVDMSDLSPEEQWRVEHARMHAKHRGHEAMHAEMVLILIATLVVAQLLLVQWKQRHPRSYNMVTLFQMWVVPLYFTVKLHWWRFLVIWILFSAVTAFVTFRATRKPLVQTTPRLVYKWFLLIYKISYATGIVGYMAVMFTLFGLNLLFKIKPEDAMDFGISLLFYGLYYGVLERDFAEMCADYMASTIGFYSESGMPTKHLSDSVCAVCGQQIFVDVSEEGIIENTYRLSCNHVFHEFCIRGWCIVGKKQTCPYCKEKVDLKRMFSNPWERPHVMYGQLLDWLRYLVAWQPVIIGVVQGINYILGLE
UniProt Q9BXT8: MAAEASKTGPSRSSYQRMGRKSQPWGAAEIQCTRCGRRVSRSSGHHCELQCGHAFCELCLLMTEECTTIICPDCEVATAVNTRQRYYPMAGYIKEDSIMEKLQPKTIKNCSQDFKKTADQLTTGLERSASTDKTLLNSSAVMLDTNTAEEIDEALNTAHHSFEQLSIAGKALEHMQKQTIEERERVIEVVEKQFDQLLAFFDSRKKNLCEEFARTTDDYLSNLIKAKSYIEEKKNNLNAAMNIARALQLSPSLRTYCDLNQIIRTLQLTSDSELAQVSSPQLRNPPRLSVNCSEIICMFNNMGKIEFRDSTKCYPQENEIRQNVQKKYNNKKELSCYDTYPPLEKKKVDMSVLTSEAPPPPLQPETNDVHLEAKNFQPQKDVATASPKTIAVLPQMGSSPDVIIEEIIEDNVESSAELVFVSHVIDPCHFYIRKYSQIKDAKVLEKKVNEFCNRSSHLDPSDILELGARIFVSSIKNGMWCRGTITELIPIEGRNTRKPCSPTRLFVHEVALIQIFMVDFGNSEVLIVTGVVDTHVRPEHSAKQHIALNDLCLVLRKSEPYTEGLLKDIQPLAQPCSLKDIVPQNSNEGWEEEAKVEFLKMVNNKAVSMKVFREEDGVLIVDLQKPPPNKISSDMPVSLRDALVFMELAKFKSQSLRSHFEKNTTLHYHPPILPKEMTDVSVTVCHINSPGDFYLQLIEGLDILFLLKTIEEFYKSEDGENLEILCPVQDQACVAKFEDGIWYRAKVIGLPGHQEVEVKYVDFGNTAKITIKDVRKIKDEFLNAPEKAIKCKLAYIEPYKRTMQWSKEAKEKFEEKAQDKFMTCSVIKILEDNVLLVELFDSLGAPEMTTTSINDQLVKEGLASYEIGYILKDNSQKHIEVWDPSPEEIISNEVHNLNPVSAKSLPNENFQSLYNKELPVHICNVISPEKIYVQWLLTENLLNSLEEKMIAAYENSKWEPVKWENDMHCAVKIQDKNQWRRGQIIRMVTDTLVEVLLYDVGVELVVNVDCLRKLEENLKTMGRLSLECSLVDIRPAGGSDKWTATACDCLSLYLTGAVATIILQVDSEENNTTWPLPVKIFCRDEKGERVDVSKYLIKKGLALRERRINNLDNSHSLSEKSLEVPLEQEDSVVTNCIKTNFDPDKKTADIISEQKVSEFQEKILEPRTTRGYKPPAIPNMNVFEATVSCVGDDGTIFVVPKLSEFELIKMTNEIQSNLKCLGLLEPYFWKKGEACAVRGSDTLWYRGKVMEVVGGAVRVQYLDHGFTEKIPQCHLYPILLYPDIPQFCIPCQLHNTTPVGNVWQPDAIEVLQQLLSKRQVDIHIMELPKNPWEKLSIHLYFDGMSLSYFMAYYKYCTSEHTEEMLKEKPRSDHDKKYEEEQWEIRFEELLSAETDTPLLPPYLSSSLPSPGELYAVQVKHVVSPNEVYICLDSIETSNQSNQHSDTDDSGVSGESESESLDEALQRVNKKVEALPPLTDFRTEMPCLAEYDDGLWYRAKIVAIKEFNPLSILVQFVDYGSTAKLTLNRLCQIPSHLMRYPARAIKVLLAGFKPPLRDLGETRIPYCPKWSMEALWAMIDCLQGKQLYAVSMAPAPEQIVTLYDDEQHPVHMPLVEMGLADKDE
UniProt O94955, whole entry, looked up: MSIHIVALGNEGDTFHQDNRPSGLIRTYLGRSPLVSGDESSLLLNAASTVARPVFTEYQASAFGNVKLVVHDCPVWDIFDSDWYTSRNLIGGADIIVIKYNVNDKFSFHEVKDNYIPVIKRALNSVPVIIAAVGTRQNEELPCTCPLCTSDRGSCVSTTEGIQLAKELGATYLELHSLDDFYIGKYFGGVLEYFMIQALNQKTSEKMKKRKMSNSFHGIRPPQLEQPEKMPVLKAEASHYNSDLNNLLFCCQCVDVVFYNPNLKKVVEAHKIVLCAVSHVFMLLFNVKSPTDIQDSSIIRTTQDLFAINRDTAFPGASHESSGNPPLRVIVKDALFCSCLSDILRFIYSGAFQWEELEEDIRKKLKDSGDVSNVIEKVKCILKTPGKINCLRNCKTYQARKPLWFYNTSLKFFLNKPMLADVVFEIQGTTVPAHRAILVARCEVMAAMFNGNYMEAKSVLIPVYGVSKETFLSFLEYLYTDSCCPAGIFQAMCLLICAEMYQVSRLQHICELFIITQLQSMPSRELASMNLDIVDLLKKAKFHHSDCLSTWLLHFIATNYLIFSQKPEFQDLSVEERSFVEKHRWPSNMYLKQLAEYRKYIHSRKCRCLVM

Compound: C/C(=N\NC(=O)C1=CC(=CC=C1)S(=O)(=O)N2CCOCC2)/C3=C(C=CC(=C3)Cl)O
Assay: log2 fold change, soluble protein after heating vs DMSO (PISA); higher = thermal stabilisation; K562 lysate, 10 uM; active = over 0.2 and 3.5 SD of the protein, either way, in both replicates (recomputed)
Summary of the method: (§1)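 K562 pellets were dounce-homogenised in PBS pH 7.4 with 1 mM MgCl2, and the crude extract at 1 mg/mL protein was treated with 10 μM compound for 30 min. Aliquots were heated for 3 min across 48°C-58°C, pooled, and brought to 0.5% NP-40 at 4°C; soluble protein was the supernatant after 21,000xg for 90 min. Soluble protein was quantified by TMTpro 16plex LC-MS/MS with channel sums equalised, and reported as log2 fold change in thermal stability against DMSO controls, with values from duplicates.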

log2 fold change, inactive:
RHOXF2B (UniProt P0C7M4) 0.077
RNF4 (UniProt P78317) 0.046
RHOQ (UniProt P17081) -0.165
RNF115 (UniProt Q9Y4L5) -0.021
RNF139 (UniProt Q8WU17) -0.047
RMND5B (UniProt Q96G75) -0.022
RNPEPL1 (UniProt Q9HAU8) -0.069
RP9 (UniProt Q8TA86) 0.092
RNF130 (UniProt Q86XS8) -0.039
ROS1 (UniProt P08922) 0.056
RPAIN isoform 8 (UniProt Q86UA6) 0.03
RNF138 (UniProt Q8WVD3) -0.011

Compound: C1=CC(=CC=C1C2=NC3=C(N2)C=C(C=C3)C(=O)N)OC4=CC=C(C=C4)Cl
Assay: as above
Summary of the method: as §1

log2 fold change, inactive:
RPL32 (UniProt D3YTI8) 0.127
RHOXF2B (UniProt P0C7M4) -0.181
RNPC3 (UniProt Q96LT9) -0.059
RNF8 (UniProt O76064) 0.042
RPL15, A0A2R8Y738 -0.035
ROGDI (UniProt Q9GZN7) 0.03
RINL (UniProt Q6ZS11) 0.013
RNF139 (UniProt Q8WU17) -0.279
RNF13 (UniProt O43567) 0.085
RNF10 isoform 2 (UniProt Q8N5U6) -0.051
RNPEPL1 (UniProt Q9HAU8) 0.096
ROBO2 isoform 3 (UniProt Q9HCK4) -0.013
RILPL2 (UniProt Q969X0) -0.043
RP9 (UniProt Q8TA86) -0.04
RNF185 (UniProt Q96GF1) 0.023
RNFT1 (UniProt Q5M7Z0) -0.003
RNF121 (UniProt Q9H920) -0.065
RNF17 (UniProt Q9BXT8) 0.008
RNF5 (UniProt Q99942) -0.14
RNF169 (UniProt Q8NCN4) 0.163
RNF41 (UniProt Q9H4P4) 0.019
RNF24 isoform 2 (UniProt Q9Y225) -0.053
RHPN2 (UniProt Q8IUC4) -0.048
RPL10, A0A087WV22 -0.319
RHOBTB3 (UniProt O94955) 0.256
